Results from the supplement of paper PMC10849652.
This is one part of the list.

Sequences of proteins named here, by UniProt entry; tags and fusion partners are left off. A change or cut given only in a name is not applied to a line headed by its entry.
UniProt Q9NXC5: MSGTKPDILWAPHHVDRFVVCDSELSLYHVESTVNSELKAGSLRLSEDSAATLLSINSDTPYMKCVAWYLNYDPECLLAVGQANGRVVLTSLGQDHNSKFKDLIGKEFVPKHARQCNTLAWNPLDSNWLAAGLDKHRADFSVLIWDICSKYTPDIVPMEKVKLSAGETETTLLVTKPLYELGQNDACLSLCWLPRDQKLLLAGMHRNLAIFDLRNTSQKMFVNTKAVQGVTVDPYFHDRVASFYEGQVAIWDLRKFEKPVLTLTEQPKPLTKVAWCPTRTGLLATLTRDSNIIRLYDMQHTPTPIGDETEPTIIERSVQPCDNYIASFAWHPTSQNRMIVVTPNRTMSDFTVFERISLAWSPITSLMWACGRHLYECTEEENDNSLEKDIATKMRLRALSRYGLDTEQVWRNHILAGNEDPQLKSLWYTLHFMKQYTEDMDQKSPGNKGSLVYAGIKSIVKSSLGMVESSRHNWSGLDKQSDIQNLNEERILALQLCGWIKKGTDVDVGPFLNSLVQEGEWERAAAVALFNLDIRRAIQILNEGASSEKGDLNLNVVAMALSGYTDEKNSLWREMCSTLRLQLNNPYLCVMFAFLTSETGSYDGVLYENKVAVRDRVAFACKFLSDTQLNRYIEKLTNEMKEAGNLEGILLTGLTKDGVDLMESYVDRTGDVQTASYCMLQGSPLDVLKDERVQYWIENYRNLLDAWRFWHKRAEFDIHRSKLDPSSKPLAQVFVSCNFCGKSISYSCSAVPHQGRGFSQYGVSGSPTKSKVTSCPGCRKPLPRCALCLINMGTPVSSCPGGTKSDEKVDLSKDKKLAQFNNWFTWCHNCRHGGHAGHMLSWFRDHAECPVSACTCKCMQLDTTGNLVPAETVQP
UniProt Q03111: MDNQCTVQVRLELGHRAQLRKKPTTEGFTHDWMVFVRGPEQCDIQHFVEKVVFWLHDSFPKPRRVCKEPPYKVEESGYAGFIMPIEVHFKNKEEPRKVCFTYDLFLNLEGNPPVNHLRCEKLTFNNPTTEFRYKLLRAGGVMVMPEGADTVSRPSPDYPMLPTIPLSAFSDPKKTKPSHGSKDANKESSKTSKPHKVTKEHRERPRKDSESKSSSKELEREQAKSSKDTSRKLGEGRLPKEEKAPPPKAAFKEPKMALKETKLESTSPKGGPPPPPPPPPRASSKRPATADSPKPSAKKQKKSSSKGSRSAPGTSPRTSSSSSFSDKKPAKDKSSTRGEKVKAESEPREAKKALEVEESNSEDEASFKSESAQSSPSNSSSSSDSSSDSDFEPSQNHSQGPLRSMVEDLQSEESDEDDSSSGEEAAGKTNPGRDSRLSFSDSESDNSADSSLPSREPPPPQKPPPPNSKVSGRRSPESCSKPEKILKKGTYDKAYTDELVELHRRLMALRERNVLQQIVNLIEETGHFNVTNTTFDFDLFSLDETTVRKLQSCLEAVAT
UniProt Q14165: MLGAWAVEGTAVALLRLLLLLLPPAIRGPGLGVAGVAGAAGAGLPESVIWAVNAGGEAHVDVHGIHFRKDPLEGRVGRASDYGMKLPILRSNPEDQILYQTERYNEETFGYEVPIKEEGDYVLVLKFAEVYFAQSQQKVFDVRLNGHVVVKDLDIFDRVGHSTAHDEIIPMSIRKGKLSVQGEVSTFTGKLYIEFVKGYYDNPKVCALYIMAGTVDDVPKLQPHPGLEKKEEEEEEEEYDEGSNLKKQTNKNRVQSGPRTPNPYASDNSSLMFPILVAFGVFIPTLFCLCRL
UniProt P22033: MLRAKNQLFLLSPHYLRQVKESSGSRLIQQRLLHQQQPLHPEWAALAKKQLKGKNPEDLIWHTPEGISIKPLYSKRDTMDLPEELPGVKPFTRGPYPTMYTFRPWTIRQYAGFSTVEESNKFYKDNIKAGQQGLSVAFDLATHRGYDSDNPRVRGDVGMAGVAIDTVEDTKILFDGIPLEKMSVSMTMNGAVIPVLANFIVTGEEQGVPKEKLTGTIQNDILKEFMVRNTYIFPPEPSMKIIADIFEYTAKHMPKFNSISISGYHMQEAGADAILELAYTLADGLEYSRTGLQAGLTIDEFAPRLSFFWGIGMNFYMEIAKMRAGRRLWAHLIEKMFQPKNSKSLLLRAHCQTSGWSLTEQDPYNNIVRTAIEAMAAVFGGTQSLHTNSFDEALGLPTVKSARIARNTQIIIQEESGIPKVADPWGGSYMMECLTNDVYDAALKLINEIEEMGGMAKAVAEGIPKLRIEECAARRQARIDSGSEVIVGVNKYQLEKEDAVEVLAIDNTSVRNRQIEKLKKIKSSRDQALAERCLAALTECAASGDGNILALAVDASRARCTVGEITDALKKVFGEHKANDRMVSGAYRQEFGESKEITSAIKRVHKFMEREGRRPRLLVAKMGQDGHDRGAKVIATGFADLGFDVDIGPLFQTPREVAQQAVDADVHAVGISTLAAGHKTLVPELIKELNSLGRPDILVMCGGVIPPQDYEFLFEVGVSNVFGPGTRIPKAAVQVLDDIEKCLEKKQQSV
UniProt P29372, whole entry, looked up: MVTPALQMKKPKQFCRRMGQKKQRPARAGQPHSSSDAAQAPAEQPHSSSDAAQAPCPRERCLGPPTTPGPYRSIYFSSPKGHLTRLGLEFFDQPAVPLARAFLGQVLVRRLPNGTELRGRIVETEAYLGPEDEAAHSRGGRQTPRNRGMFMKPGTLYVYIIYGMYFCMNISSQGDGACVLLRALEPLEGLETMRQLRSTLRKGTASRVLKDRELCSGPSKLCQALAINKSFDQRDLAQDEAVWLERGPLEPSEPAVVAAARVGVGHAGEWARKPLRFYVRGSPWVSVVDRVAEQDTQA
UniProt O95297: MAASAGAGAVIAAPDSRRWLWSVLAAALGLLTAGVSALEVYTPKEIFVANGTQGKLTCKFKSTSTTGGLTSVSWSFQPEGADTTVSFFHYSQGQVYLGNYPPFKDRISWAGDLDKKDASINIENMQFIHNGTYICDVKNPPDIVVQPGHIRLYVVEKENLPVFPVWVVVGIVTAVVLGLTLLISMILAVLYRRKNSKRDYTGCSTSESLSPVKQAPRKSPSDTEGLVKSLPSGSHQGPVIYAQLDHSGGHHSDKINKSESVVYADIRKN
UniProt Q6WCQ1: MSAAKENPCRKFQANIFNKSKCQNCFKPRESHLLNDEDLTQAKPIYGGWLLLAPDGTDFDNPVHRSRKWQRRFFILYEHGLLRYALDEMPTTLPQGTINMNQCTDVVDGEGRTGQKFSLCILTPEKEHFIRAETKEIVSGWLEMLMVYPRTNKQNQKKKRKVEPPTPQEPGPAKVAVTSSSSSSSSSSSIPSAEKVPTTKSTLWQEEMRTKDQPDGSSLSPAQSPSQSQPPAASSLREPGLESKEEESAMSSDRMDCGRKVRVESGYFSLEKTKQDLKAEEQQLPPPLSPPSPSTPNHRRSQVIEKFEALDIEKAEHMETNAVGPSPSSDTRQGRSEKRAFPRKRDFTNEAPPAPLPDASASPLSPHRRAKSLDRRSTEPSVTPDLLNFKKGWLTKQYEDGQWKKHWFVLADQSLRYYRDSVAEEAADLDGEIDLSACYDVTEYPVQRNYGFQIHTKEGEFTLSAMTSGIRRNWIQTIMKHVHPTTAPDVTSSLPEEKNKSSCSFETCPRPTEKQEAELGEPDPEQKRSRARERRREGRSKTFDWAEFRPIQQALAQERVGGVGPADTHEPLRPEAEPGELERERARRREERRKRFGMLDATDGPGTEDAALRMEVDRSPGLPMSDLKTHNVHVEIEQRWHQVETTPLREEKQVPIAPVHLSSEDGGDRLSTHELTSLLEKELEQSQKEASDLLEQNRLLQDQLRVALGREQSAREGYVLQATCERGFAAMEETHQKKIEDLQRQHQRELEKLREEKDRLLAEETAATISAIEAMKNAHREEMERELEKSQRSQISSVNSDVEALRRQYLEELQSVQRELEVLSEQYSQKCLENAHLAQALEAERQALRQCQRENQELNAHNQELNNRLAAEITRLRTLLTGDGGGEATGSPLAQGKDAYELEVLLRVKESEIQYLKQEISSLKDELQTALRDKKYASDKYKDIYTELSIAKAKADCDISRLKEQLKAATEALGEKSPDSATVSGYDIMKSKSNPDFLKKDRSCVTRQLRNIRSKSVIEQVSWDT
UniProt Q8N4V1: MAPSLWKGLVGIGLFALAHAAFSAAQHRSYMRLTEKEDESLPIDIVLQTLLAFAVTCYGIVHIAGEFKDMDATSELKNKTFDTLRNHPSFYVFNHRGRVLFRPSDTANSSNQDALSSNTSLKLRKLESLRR
UniProt P25325: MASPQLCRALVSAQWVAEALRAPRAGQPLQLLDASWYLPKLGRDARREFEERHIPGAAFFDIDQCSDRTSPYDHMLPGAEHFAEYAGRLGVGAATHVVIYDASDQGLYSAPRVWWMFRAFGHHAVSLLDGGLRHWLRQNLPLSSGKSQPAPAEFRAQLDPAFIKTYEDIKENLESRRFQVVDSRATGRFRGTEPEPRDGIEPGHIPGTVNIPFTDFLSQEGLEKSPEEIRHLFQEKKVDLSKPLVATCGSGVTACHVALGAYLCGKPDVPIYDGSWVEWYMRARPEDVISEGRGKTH
UniProt Q9NZB8: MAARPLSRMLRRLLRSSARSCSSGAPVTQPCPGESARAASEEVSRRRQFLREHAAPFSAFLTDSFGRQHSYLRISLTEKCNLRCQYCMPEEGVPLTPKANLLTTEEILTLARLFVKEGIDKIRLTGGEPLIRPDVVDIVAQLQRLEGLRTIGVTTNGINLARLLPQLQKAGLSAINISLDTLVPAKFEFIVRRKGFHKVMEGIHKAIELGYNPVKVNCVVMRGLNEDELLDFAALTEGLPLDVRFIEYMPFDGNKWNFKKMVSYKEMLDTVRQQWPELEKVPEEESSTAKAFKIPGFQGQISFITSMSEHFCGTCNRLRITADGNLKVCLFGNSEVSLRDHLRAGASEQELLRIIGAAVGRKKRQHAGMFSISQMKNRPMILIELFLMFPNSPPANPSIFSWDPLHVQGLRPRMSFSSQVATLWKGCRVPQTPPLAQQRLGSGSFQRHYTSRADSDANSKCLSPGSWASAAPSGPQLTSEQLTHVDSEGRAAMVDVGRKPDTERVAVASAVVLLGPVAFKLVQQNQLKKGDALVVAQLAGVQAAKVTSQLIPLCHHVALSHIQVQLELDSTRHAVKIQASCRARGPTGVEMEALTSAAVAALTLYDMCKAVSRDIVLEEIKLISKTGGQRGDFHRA
UniProt Q9NYP9: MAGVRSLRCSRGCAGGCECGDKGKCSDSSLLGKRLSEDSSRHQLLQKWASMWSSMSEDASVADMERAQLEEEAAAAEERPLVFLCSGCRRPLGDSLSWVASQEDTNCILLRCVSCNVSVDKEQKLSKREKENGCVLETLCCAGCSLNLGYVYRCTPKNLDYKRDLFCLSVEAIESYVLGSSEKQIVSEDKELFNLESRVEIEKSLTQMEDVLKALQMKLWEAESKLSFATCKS
UniProt Q9BV20: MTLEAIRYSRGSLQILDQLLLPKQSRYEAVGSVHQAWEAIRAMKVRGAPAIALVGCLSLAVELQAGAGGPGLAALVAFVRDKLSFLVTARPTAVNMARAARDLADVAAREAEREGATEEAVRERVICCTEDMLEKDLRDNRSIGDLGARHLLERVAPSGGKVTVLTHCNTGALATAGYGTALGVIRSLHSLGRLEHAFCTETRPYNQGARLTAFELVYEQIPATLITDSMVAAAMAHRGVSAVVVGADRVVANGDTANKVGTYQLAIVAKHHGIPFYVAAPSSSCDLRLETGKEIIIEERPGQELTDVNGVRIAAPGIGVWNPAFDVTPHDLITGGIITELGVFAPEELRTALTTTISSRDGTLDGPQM
UniProt Q13724: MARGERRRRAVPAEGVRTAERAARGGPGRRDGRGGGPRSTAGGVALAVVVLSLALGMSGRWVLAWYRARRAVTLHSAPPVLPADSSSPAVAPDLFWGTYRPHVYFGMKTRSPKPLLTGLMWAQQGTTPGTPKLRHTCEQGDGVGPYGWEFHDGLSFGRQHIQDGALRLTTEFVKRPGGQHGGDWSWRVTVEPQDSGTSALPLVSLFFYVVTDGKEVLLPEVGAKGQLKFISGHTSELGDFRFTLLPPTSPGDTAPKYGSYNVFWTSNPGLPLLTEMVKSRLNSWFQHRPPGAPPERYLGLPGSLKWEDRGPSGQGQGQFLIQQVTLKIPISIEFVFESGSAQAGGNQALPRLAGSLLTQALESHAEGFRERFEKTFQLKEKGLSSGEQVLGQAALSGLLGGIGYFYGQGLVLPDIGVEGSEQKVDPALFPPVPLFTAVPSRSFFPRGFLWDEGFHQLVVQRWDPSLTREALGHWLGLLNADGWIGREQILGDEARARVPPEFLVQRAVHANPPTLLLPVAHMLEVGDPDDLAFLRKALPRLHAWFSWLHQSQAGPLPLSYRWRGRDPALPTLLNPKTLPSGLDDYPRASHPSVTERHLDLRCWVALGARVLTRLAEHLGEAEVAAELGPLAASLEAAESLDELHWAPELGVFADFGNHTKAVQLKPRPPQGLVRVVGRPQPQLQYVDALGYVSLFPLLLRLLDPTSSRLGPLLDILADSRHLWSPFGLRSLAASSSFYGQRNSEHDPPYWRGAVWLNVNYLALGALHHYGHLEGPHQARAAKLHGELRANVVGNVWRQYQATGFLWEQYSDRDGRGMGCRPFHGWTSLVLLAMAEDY

compound: CC(=O)c1cnc2ccc(-c3cc(Cl)c(O)c(Cl)c3)nc2c1N[C@H]1CC[C@H](CN(C)C)CC1; assay: log2 fold change, soluble protein after heating vs DMSO (PISA); higher = thermal stabilisation; K562 cells, 10 uM, 30 min; active = over 0.2 and 3.5 SD of the protein, either way, in both replicates (recomputed)
Outline: (§1)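 K562 cells at 2×10^6 cells/mL were treated for 30 min with 10 μM compound, and aliquots were heated for 3 min over 48°C-58°C before pooling. Extraction used PBS with 0.5% NP-40 at 4°C, and soluble protein was the supernatant after 21,000xg for 90 min, measured by TMTpro 16plex LC-MS/MS with channel sums equalised. Thermal stability values, relative to control samples and from duplicates, are log2 fold changes.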

Row | Target | log2 fold change
1 | MIOS (UniProt Q9NXC5) | inactive: -0.016
2 | MLLT1 (UniProt Q03111) | inactive: -0.156
3 | MRPL37 (UniProt Q9BZE1) | inactive: 0.003
4 | MRPL30 isoform 2 (UniProt Q8TCC3) | inactive: 0.068
5 | MLEC (UniProt Q14165) | inactive: 0.027
6 | MRPL24 (UniProt Q96A35) | inactive: 0.041
7 | MMUT (UniProt P22033) | inactive: -0.072
8 | MRPL39 (UniProt Q9NYK5) | inactive: 0.03
9 | MRPL54 (UniProt Q6P161) | inactive: 0.052
10 | MRPL17 (UniProt Q9NRX2) | inactive: 0.075
11 | MPG (UniProt P29372) | inactive: 0.077
12 | MRPL48 (UniProt Q96GC5) | inactive: 0.011
13 | MRM3 (UniProt Q9HC36) | inactive: 0.108
14 | MRPL20 (UniProt Q9BYC9) | inactive: 0.11
15 | MRPL49 (UniProt Q13405) | inactive: 0.05
16 | MRPL4 (UniProt Q9BYD3) | inactive: 0.062
17 | MPZL1 (UniProt O95297) | inactive: 0.011
18 | MOB1B isoform 2 (UniProt Q7L9L4) | inactive: 0.002
19 | MPRIP isoform 2 (UniProt Q6WCQ1) | inactive: -0.146

Row | Target | log2 fold change
20 | MRPL44 (UniProt Q9H9J2) | inactive: 0.108
21 | MRPL21 (UniProt Q7Z2W9) | inactive: 0.024
22 | MICOS10 (UniProt Q5TGZ0) | inactive: 0.014
23 | MRPL40 (UniProt Q9NQ50) | inactive: 0.027
24 | MMGT1 (UniProt Q8N4V1) | inactive: 0.028
25 | MINPP1 (UniProt Q9UNW1) | inactive: -0.016
26 | MRE11 isoform 3 (UniProt P49959) | inactive: -0.042
27 | MPST isoform 2 (UniProt P25325) | inactive: -0.031
28 | MRPL11 (UniProt Q9Y3B7) | inactive: 0.063
29 | MRPL12 (UniProt P52815) | inactive: 0.001
30 | MPC2 (UniProt O95563) | inactive: -0.004
31 | MOCS1 isoform 8 (UniProt Q9NZB8) | inactive: -0.095
32 | MIS18A (UniProt Q9NYP9) | inactive: -0.004
33 | MRI1 (UniProt Q9BV20) | inactive: -0.021
34 | MOGS (UniProt Q13724) | inactive: 0.026
35 | MRPL45 (UniProt Q9BRJ2) | inactive: 0.015
36 | MRPL43 isoform 4 (UniProt Q8N983) | inactive: 0.117
37 | MINDY3 (UniProt Q9H8M7) | inactive: -0.031
38 | MRPL13 (UniProt Q9BYD1) | inactive: 0.006

compound: CC(C)(C)Cn1c(N)nc2ccc(-c3[nH]c(C(C)(C)C)nc3-c3ccc(F)cc3)nc21 [ralimetinib]; assay: as above
Outline: as §1

Row | Target | log2 fold change
39 | MIOS (UniProt Q9NXC5) | inactive: 0.056
40 | MLLT1 (UniProt Q03111) | inactive: 0.05
41 | MRPL37 (UniProt Q9BZE1) | inactive: 0.116
42 | MRPL30 isoform 2 (UniProt Q8TCC3) | inactive: 0.114
43 | MLEC (UniProt Q14165) | inactive: 0.011
44 | MRPL24 (UniProt Q96A35) | inactive: 0.087
45 | MMUT (UniProt P22033) | inactive: -0.027
46 | MRPL39 (UniProt Q9NYK5) | inactive: 0.113
47 | MRPL54 (UniProt Q6P161) | inactive: 0.038
48 | MRPL17 (UniProt Q9NRX2) | inactive: 0
49 | MPG (UniProt P29372) | inactive: 0.158
50 | MRPL48 (UniProt Q96GC5) | inactive: 0.046
51 | MRM3 (UniProt Q9HC36) | inactive: 0.25
52 | MRPL20 (UniProt Q9BYC9) | inactive: 0.005
53 | MRPL49 (UniProt Q13405) | inactive: -0.155
54 | MRPL4 (UniProt Q9BYD3) | inactive: 0.113
55 | MPZL1 (UniProt O95297) | inactive: -0.096
56 | MOB1B isoform 2 (UniProt Q7L9L4) | inactive: -0.069
57 | MPRIP isoform 2 (UniProt Q6WCQ1) | inactive: 0.014

Row | Target | log2 fold change
58 | MRPL44 (UniProt Q9H9J2) | inactive: 0.124
59 | MRPL21 (UniProt Q7Z2W9) | inactive: 0.046
60 | MICOS10 (UniProt Q5TGZ0) | inactive: -0.175
61 | MRPL40 (UniProt Q9NQ50) | inactive: -0.023
62 | MMGT1 (UniProt Q8N4V1) | inactive: -0.007
63 | MINPP1 (UniProt Q9UNW1) | inactive: -0.04
64 | MRE11 isoform 3 (UniProt P49959) | inactive: -0.031
65 | MPST isoform 2 (UniProt P25325) | inactive: -0.007
66 | MRPL11 (UniProt Q9Y3B7) | inactive: 0.074
67 | MRPL12 (UniProt P52815) | inactive: -0.049
68 | MPC2 (UniProt O95563) | inactive: -0.011
69 | MOCS1 isoform 8 (UniProt Q9NZB8) | inactive: -0.052
70 | MIS18A (UniProt Q9NYP9) | inactive: -0.032
71 | MRI1 (UniProt Q9BV20) | inactive: 0.009
72 | MOGS (UniProt Q13724) | inactive: 0.021
73 | MRPL45 (UniProt Q9BRJ2) | inactive: 0.084
74 | MRPL43 isoform 4 (UniProt Q8N983) | inactive: 0.001
75 | MINDY3 (UniProt Q9H8M7) | inactive: -0.003
76 | MRPL13 (UniProt Q9BYD1) | inactive: 0.084
